Data as given in the supplement of paper PMC10849652.
The other results are listed elsewhere or left out.

Sequences of proteins named here, by UniProt entry; tags and fusion partners are left off. A change or cut given only in a name is not applied to a line headed by its entry.
UniProt A1A5C7: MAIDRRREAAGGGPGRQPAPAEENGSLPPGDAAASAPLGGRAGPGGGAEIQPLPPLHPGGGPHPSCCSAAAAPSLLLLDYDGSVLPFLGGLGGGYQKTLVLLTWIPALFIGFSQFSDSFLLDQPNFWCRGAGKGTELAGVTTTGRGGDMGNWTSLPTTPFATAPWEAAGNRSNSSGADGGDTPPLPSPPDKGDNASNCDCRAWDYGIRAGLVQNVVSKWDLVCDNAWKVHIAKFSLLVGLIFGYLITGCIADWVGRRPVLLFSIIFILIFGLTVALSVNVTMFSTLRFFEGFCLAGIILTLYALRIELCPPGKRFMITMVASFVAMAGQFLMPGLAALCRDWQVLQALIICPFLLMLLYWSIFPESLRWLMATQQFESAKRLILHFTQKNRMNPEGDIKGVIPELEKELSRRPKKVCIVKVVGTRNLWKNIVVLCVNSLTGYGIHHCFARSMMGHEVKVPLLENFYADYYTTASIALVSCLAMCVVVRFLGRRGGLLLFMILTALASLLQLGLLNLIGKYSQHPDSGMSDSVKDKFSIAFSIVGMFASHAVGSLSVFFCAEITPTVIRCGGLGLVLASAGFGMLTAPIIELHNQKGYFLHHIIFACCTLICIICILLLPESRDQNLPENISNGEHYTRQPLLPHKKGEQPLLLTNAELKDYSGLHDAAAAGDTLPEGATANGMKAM
UniProt P48067: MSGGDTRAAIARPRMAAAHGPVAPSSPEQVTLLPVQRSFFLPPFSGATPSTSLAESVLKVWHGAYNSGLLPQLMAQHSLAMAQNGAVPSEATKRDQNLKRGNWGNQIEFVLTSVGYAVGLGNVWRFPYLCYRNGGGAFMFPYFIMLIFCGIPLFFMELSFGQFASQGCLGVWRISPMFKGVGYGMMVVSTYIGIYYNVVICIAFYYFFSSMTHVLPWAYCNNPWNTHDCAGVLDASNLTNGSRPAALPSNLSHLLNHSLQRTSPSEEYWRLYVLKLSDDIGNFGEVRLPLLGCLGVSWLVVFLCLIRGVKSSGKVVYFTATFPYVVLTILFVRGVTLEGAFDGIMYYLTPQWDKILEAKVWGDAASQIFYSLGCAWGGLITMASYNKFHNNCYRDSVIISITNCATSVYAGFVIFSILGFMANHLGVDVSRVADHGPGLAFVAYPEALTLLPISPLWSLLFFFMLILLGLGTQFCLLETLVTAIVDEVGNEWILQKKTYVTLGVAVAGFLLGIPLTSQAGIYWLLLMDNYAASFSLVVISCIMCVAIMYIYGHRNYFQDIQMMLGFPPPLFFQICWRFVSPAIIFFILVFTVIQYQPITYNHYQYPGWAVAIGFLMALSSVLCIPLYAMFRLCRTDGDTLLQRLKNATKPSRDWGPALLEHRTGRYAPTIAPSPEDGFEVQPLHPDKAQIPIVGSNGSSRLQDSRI
UniProt Q9H2G2: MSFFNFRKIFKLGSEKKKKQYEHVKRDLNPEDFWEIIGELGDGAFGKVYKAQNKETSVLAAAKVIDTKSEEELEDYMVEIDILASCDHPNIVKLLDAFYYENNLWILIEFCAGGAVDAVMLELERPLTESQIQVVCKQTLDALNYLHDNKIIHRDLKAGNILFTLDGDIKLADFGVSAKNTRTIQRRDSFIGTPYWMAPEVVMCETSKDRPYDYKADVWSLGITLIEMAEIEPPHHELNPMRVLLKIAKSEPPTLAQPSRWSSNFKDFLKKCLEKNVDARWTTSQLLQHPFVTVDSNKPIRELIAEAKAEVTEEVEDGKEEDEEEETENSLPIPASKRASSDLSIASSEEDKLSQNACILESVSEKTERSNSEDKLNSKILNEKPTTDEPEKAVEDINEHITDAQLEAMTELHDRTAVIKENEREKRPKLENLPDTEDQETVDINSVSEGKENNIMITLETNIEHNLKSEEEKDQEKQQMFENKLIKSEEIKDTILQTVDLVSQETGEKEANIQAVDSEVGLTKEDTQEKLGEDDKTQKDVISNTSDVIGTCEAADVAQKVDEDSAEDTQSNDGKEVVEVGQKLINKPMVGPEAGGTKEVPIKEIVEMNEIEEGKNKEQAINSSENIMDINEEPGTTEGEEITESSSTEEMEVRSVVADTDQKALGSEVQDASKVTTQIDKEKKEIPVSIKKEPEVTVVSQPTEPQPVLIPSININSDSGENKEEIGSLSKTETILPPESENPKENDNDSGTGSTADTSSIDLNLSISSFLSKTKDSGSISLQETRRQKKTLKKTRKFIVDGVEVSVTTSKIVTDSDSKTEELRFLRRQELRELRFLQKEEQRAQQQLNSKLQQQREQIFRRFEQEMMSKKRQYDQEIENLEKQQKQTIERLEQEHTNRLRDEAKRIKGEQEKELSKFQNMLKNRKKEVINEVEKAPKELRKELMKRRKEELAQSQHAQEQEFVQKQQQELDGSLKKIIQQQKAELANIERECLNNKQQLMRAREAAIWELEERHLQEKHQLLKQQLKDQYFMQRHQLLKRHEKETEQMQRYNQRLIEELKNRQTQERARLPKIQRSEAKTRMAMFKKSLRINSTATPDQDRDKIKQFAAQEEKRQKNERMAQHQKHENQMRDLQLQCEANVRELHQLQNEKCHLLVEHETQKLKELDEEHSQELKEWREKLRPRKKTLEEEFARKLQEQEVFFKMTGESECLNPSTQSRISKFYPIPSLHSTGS
UniProt O15431: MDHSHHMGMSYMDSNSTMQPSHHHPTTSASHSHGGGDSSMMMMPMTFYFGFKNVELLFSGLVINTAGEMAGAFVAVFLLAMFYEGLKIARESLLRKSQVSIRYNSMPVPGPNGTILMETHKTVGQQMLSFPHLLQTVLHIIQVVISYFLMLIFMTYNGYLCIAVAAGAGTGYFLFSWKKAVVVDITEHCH
UniProt Q86WA9: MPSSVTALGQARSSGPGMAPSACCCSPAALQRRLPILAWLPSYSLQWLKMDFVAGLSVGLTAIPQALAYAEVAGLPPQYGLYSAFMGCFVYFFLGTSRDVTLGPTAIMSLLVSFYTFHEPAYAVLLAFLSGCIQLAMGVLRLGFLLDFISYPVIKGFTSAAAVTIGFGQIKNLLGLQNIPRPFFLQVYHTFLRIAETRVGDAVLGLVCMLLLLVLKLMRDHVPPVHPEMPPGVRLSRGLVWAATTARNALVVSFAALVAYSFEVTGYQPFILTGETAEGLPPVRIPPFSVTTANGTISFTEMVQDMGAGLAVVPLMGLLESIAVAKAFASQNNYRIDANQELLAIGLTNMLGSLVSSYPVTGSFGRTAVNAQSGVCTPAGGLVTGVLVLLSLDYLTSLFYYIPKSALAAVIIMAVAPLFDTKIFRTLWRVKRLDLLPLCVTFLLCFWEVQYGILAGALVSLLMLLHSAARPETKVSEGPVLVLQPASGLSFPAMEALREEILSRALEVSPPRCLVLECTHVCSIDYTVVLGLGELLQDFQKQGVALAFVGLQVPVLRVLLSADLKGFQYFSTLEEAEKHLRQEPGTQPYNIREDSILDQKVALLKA
UniProt F5GZS6: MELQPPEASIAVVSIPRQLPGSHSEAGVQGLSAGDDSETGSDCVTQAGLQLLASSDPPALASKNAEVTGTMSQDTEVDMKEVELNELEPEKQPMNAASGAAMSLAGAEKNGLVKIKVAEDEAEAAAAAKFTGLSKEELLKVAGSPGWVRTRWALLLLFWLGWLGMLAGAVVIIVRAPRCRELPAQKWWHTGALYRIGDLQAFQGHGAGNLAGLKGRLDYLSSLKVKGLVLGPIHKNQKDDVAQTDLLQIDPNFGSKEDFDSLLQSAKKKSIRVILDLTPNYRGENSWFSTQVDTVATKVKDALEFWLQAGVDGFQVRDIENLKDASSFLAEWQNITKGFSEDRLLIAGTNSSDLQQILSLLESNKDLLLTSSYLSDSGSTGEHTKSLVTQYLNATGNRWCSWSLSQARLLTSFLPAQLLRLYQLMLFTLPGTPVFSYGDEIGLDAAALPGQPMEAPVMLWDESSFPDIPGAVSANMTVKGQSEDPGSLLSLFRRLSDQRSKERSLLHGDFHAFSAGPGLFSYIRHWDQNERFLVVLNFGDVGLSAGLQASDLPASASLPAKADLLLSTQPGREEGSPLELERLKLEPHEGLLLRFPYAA
UniProt Q0VAQ4: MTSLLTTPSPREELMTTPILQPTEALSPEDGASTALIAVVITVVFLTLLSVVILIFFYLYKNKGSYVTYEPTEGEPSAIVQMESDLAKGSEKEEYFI
UniProt P0C7P3: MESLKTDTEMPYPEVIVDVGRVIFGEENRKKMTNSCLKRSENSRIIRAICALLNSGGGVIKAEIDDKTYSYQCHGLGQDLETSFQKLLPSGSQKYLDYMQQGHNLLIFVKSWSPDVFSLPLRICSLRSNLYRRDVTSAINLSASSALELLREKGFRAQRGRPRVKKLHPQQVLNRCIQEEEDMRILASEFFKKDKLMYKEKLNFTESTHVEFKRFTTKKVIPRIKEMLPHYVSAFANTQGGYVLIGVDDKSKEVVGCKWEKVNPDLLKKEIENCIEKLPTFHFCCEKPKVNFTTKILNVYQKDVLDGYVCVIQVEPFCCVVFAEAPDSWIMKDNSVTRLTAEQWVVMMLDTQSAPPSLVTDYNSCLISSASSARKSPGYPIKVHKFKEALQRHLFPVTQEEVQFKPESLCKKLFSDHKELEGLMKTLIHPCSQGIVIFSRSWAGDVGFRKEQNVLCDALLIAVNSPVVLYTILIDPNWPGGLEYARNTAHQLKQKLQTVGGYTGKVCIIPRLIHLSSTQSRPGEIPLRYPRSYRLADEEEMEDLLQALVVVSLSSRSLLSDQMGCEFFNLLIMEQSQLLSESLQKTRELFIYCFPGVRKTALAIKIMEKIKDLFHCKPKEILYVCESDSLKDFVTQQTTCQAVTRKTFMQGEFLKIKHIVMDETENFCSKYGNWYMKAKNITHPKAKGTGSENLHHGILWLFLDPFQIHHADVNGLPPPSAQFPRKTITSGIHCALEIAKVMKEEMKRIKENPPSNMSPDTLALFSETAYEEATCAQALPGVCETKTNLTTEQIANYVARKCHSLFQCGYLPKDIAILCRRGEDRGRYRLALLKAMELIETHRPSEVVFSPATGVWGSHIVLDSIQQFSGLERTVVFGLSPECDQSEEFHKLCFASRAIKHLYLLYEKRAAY

Tests used:
Assay in all cases: log2 fold change, soluble protein after heating vs DMSO (PISA); higher = thermal stabilisation; K562 lysate, 10 uM; active = over 0.2 and 3.5 SD of the protein, either way, in both replicates (recomputed)
vemurafenib = compound: CCCS(=O)(=O)Nc1ccc(F)c(C(=O)c2c[nH]c3ncc(-c4ccc(Cl)cc4)cc23)c1F [vemurafenib]
Summary of the method: (§1)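 Quantification was by TMTpro 16plex LC-MS/MS with equalised channel sums, applied to the supernatant after 21,000xg for 90 min. Samples were crude K562 extract at 1 mg/mL protein in PBS pH 7.4 with 1 mM MgCl2, treated with 10 μM compound for 30 min, heated for 3 min across 48°C-58°C, pooled and brought to 0.5% NP-40 at 4°C. Values are log-two fold changes in thermal stability relative to solvent controls, from duplicates.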

[1] = compound: CCCS(=O)(=O)Nc1ccc(F)c(C(=O)c2c[nH]c3ncc(Cl)cc23)c1F
Summary of the method: as §1

barasertib = compound: CCN(CCCOc1ccc2c(Nc3cc(CC(=O)Nc4cccc(F)c4)[nH]n3)ncnc2c1)CCOP(=O)(O)O [barasertib]
Summary of the method: as §1

[2] = compound: CC[C@@H]1C(=O)N(C)c2cnc(Nc3ccc(C(=O)NC4CCN(C)CC4)cc3OC)nc2N1C1CCCC1
Summary of the method: as §1

volasertib = compound: CC[C@@H]1C(=O)N(C)c2cnc(Nc3ccc(C(=O)N[C@H]4CC[C@H](N5CCN(CC6CC6)CC5)CC4)cc3OC)nc2N1C(C)C [volasertib]
Summary of the method: as §1

[3] = compound: CCn1c(C(=O)N(C2CC2)C2CC2)cc2c3c(ncn3C)c(Nc3cc(C)n(C)n3)nc21
Summary of the method: as §1

[4] = compound: CCn1cc(-c2ccnc3[nH]c(-c4cccc(CN(C)C)c4)cc23)c(-c2ccc(NC(=O)N(C)C)cc2)n1
Summary of the method: as §1

[5] = compound: CN1CCC(CNc2ccc3ncc(-c4cccc(OC(F)(F)F)c4)n3n2)CC1
Summary of the method: as §1

saracatinib = compound: CN1CCN(CCOc2cc(OC3CCOCC3)c3c(Nc4c(Cl)ccc5c4OCO5)ncnc3c2)CC1 [saracatinib]
Summary of the method: as §1

sotrastaurin = compound: CN1CCN(c2nc(C3=C(c4c[nH]c5ccccc45)C(=O)NC3=O)c3ccccc3n2)CC1 [sotrastaurin]
Summary of the method: as §1

alvocidib = compound: CN1CC[C@H](c2c(O)cc(O)c3c(=O)cc(-c4ccccc4Cl)oc23)[C@H](O)C1 [alvocidib]
Summary of the method: as §1

Tubastatin A = compound: CN1CCc2c(c3ccccc3n2Cc2ccc(C(=O)NO)cc2)C1 [Tubastatin A]
Summary of the method: as §1

[6] = compound: CNC(=O)C1=CC=CC=C1NC2=NC(=NC=C2Cl)NC3=C(C=C(C=C3)N4CCOCC4)OC
Summary of the method: as §1

defactinib = compound: CNC(=O)c1ccc(Nc2ncc(C(F)(F)F)c(NCc3nccnc3N(C)S(C)(=O)=O)n2)cc1 [defactinib]
Summary of the method: as §1

[7] = compound: CNc1nc(-c2ccc3c(N)n[nH]c3c2)cc(N2C[C@@H](C(=O)NC3CCCCC3)CC[C@H]2C)n1
Summary of the method: as §1

encorafenib = compound: COC(=O)N[C@@H](C)CNc1nccc(-c2cn(C(C)C)nc2-c2cc(Cl)cc(NS(C)(=O)=O)c2F)n1 [encorafenib]
Summary of the method: as §1

[8] = compound: COC(=O)[C@H](CCSC)NC(=O)C1=C(C=C(C=C1)NC[C@H](CS)N)C2=CC=CC=C2
Summary of the method: as §1

[9] = compound: COc1cc2nc(-c3cc(F)ccc3O)nc(N[C@@H]3CNC[C@H]3C(C)(C)O)c2cc1OC
Summary of the method: as §1

alisertib = compound: COc1cc(Nc2ncc3c(n2)-c2ccc(Cl)cc2C(c2c(F)cccc2OC)=NC3)ccc1C(=O)O [alisertib]
Summary of the method: as §1

gefitinib = compound: COc1cc2ncnc(Nc3ccc(F)c(Cl)c3)c2cc1OCCCN1CCOCC1 [gefitinib]
Summary of the method: as §1

Measured: log2 fold change

SLC22A23 (UniProt A1A5C7)
inactive: vemurafenib 0.016 | [1] 0.001 | barasertib 0.008 | [2] 0.035 | volasertib -0.003 | [3] -0.06 | [4] -0.154 | [5] 0.066 | saracatinib 0.064 | sotrastaurin -0.024 | alvocidib -0.15 | Tubastatin A 0.035 | [6] -0.028 | defactinib -0.062 | [7] 0.041 | encorafenib -0.08 | [8] 0.011 | [9] 0.081

SLC6A9 isoform 2 (UniProt P48067)
inactive: vemurafenib -0.072 | [1] -0.031 | barasertib 0.032 | [2] 0.081 | volasertib 0.029 | [3] -0.055 | [4] -0.063 | [5] 0.051 | saracatinib -0.004 | sotrastaurin 0.061 | alvocidib -0.011 | Tubastatin A 0.011 | [6] 0.017 | defactinib -0.033 | [7] 0.088 | encorafenib -0.017 | [8] -0.105 | alisertib -0.084 | [9] 0.071 | gefitinib 0.046

SLK isoform 2 (UniProt Q9H2G2)
inactive: vemurafenib 0.011 | [1] -0.003 | barasertib -0.024 | [2] 0.072 | volasertib 0.039 | [3] -0.004 | [4] -0.094 | [5] 0.091 | saracatinib 0.142 | sotrastaurin 0.051 | alvocidib 0.046 | Tubastatin A -0.005 | [6] 0.103 | defactinib 0.044 | [7] 0.019 | encorafenib -0.046 | [8] -0.009 | alisertib -0.01 | [9] -0.011 | gefitinib 0.05

SLC31A1 (UniProt O15431)
inactive: vemurafenib 0.094 | [1] -0.001 | barasertib 0.182 | volasertib 0.302 | [3] -0.032 | [4] -0.047 | [5] -0.098 | saracatinib 0.073 | sotrastaurin 0.045 | alvocidib -0.002 | Tubastatin A -0.112 | [6] 0.07 | defactinib -0.094 | [7] -0.16 | alisertib -0.17 | [9] 0.104 | gefitinib 0.049

SLC26A11 (UniProt Q86WA9)
inactive: [4] -0.043 | [5] 0.273 | sotrastaurin 0.009 | alvocidib -0.116 | [6] 0

SLC3A2 (UniProt F5GZS6)
inactive: [1] 0.046 | barasertib -0.053 | [2] 0.204 | volasertib 0.068 | [3] 0.07 | [4] -0.052 | [5] 0.089 | saracatinib 0.015 | alvocidib 0.025 | Tubastatin A 0.044 | [6] 0.141 | [7] 0.117 | encorafenib 0.026 | [8] -0.059 | alisertib 0.105 | [9] 0.13 | gefitinib 0.167

SMAGP (UniProt Q0VAQ4)
inactive: [1] -0.059 | [2] -0.151 | volasertib 0.062 | [3] -0.029 | [4] -0.129 | [5] -0.029 | saracatinib 0.098 | sotrastaurin 0.017 | alvocidib 0.031 | Tubastatin A 0.147 | [6] 0.091 | [7] 0.009 | encorafenib 0.005 | [8] 0.152 | alisertib -0.221 | [9] -0.323 | gefitinib -0.236

SLFN14 (UniProt P0C7P3)
inactive: vemurafenib -0.139 | barasertib 0.001 | [2] 0.011 | [4] 0.059 | [5] -0.019 | sotrastaurin -0.014 | alvocidib -0.073 | defactinib 0.13 | encorafenib 0.115 | [8] -0.03
